The values below come from PubChem BioAssay AID1347426 (Functional Genomics Laboratory (NCATS/FGL), 2020).

Out of some 31,000 sequences screened, about 1,400 (4.5%) were called active.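 The calls were made as follows: active = median seed-adjusted z-score above 1 or below -1; inactive = the rest.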 The list shows a part of the results.

The nature of this test: Novel Modifiers of Survival Motor Neuron (SMN) Protein: Gene Identification via Genome-wide siRNA Screen.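 Also: luminescence tracks full-length SMN protein made from the SMN2 reporter.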 The note with it: HEK293T SMN2-luciferase reporter, siRNA knockdown, 72 h; actives lie on both sides. An outline of the steps:
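Luciferase signal, proportional to full-length SMN made from an SMN2 cDNA reporter in stable HEK293T cells, was read 72 h after siRNA reverse transfection. Values were expressed as MAD scores after non-targeting-control normalization and log10 conversion; seed analysis flagged off-targets.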
With GGGACACUCCUAUCAACUATT against ST18, the median seed-adjusted z-score was inactive: 0.0762.

Take CCAGUAAGUGUACAGCUUATT against ANTXR2: the median seed-adjusted z-score is inactive: -0.727.

For CCAUCAAGCUCAUAAGCAATT against MAST1, the median seed-adjusted z-score is inactive: -0.0897.

With GACUCGCUCAAGUACGAAATT against TTLL7, the median seed-adjusted z-score was inactive: 0.00109.

As for GAACCGCAGAGCUAAGCAATT against PROP1, the median seed-adjusted z-score was inactive: 0.303.

On to AGGAGUGACUGAACUUAGATT against SPAG16, for which the median seed-adjusted z-score is inactive: -0.0252.

With GCAGAUCUCUGUUCUCUCATT against SOX21, the median seed-adjusted z-score is inactive: -0.412.

Regarding GCAGUGGAGAAAACUAUGATT against PLG, the median seed-adjusted z-score is inactive: 0.00473.

Take UGACAAGUCUGCCCACCAATT against DNAJC4: the median seed-adjusted z-score was inactive: 0.566.

For the sequence GGCGAGAUCUUUAUACGCATT against ZNF224, the median seed-adjusted z-score is inactive: 0.0073.

For CCUGCGCUAUCUGACCUUCTT against ERN1, the median seed-adjusted z-score is inactive: 0.684.

GCUGGAACGUGGUCAAUGUTT against AFP: the median seed-adjusted z-score is inactive: -0.144.

GGGCAGAUCUUCAAUCAGUTT against GH2: the median seed-adjusted z-score was inactive: 0.374.

For the sequence GGUUUUAACUGGAACUGGATT against HIF1AN, the median seed-adjusted z-score was inactive: -0.0315.

Consider CCUCCUUUCUGAUCAGGGATT against BARHL1, for which the median seed-adjusted z-score was inactive: 0.397.

For the sequence AGAAAGUUCCGGUCCUAUATT against ERN2, the median seed-adjusted z-score was inactive: 0.526.

GCCCUGCAAUAAUAACUGUTT against SLCO3A1: the median seed-adjusted z-score is inactive: -0.0387.

Regarding CAAUAGGAUUAUCAUGAGATT against MRS2, the median seed-adjusted z-score was active: 1.38.

Regarding CCUUUAGCACGGAUAGUUUTT against ACAT2, the median seed-adjusted z-score is active: 1.25.

With CCUUGAAUCCCGAAUUCAATT against RPH3A, the median seed-adjusted z-score is inactive: 0.232.

As for CCAGAGAGGUGGUGGAAUATT against B3GNT3, the median seed-adjusted z-score is inactive: 0.439.

As to UGUCUGCUCCUGACCCUAATT against CYP2F1, the median seed-adjusted z-score is inactive: 0.

On to GGAAAAACCUUCAACCGAATT against ZNF329, for which the median seed-adjusted z-score is inactive: -0.0877.

Turning to GGUCCGUGACGAGAAGUUATT against RAB4A, the median seed-adjusted z-score was inactive: 0.0022.

GAGCUGAACUUGUCAUUCUTT against RANGAP1: the median seed-adjusted z-score is inactive: -0.0379.

For CCAACAACAUAGCAAUUAATT against NFS1, the median seed-adjusted z-score was inactive: 0.141.

For GCUCAGCUGUUUGCGUUGATT against USP14, the median seed-adjusted z-score was inactive: 0.

Consider GAAACAAAGUCUUAAUAUUTT against ATP1A4, for which the median seed-adjusted z-score is inactive: 0.116.

Take CAACUUGCCUUGUUAACCATT against ZDHHC2: the median seed-adjusted z-score was inactive: 0.133.

As to GCAGUUGUCUACGCCCAGATT against CNTFR, the median seed-adjusted z-score was inactive: 0.
